Results are given in words; binding and its absence hold for the method and conditions named. Some results given as binding are weak or reduced against the parent protein; the word gives no strength.
Target: T25-MxdA (S. oneidensis) (UniProt Q8E9T3)
Experiment: two-hybrid

The chains behind the UniProt entries cited, without tags or fusion partners.
UniProt Q51455: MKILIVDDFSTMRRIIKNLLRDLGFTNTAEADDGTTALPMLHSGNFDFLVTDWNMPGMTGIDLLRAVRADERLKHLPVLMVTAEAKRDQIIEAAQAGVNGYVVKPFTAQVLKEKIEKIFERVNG

T18-CheYPA (from UniProt Q51455 1-124) was tested, and the binding was “no binding”.

B1: T18-CheYEC (protein, UniProt P0AE67 1-129)
chain: MADKELKFLVVDDFSTMRRIVRNLLKELGFNNVEEAEDGVDALNKLQAGGYGFVISDWNMPNMDGLELLKTIRADGAMSALPVLMVTAEAKKENIIAAAQAGASGYVVKPFTAATLEEKLNKIFEKLGM
B1 was tested, and the binding was “binds”.

Source: article PMC7666153, “The phosphorylated regulator of chemotaxis is crucial throughout biofilm biogenesis in Shewanella oneidensis” (NPJ Biofilms and Microbiomes, 2020)
